Experimental data: the supplement of paper PMC7877785
± gives the uncertainty stated by the source. Many entries were measured with a wide error.

Assay: self-splicing fitness, log relative to wild type (ln ratio); higher = more splicing; Tetrahymena group I intron in knt gene, E. coli kanamycin selection, DiMSum; sequences stand for … in CUCUCU…GGAGGGAAAAGUUAUCAGGCAUGCACCUGGUAGCUAGUCUUUAAACCAAUAGAUUGCAUCGGUUUAAAAGGCAAGACCGUCAAAUUGCGGGAAAGGGGUCAACAGCCGUUCAGUACCAAGUCUCAGGGGAAACUUUGAGAUGGCCUUGCAAAGGGUAUGGUAAUAAGCUGACGGACAUGGUCCUAACCACGCAGCCAAGUCCUAAGUCAACAGAUCUUCUGUUGAUAUGGAUGCAGUUCACAGACUAAAUGUCGGUCGGGGAAGAUGUAUUCUUCUCAUAAGAUAUAGUCGGACCUCUCCUUAAUGGGAGCUAGCGGAUGAAGUGAUGCAACACUGGAGCCGCUGGGAACUAAUUUGUAUGCGAAAGUAUAUUGAUUAGUUUUGGAGUACUCGUGGUCG
Procedure, shortened: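 DiMSum derived fitness as the error-weighted combination of fold changes across replicates, kanamycin versus no kanamycin, normalised to wild type. E. coli BL21(DE3) held the library, which randomised all eight P1ex-region intron nucleotides within the knt kanamycin-resistance gene on pET-22b(+). Six replicate transformations grew overnight at 37°C or 30°C on LB agar with or without 25 μg/mL kanamycin, also containing 100 μg/mL carbenicillin, 50 μM IPTG and 0.2% rhamnose, and pooled colonies were amplicon-sequenced on an Illumina HiSeq 2500.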

Row | Sequence | self-splicing fitness (ln) (30 °C) | self-splicing fitness (ln) (37 °C)
1 | GCGUAGCAAUAUUACGUCGG | -2.69 ± 0.21 | -3.18 ± 0.24
2 | AUUGAGCAAUAUUACGUCCG | -2.58 ± 0.16 | -2.91 ± 0.48
3 | UCCUAGCAAUAUUACGGACC |  | -1.46 ± 0.53
4 | ACGUAGCAAUAUUACGCCCG | -0.224 ± 0.13 | -0.474 ± 0.17
5 | GUCUAGCAAUAUUACGCCAA | -3.31 ± 1 | 
6 | CUUUAGCAAUAUUACGCCUC | -3.18 ± 0.74 | 
7 | CUUCAGCAAUAUUACGGUAG | -1.94 ± 0.12 | -0.92 ± 0.14
8 | GAUGAGCAAUAUUACGAUAC | -3.7 ± 0.38 | -0.654 ± 0.2
9 | AGGGAGCAAUAUUACGCAAA | -3.12 ± 1.1 | 0.235 ± 0.6
10 | GGCGAGCAAUAUUACGAGAG | -3.79 ± 0.39 | -2.54 ± 0.33
11 | UGUUAGCAAUAUUACGGAGA | -3.17 ± 1 | -3.39 ± 1
12 | UAACAGCAAUAUUACGUACA | -0.576 ± 0.071 | -0.319 ± 0.092
13 | CAUAAGCAAUAUUACGGGUG | -2.3 ± 0.08 | -1.17 ± 0.078
14 | CAGAAGCAAUAUUACGGGCC | -4.76 ± 1 | -3.56 ± 0.6
15 | AUCGAGCAAUAUUACGUAAC |  | -2.18 ± 1.1
16 | CGCAAGCAAUAUUACGCCAC | -1.82 ± 0.53 | 
17 | AUUAAGCAAUAUUACGGACC | -1.96 ± 1.2 | -1.05 ± 0.6
18 | CGUAAGCAAUAUUACGUAAG | -1.49 ± 0.1 | -0.165 ± 0.092
19 | UGGUAGCAAUAUUACGGGGU |  | -2.96 ± 0.75
20 | UAGUAGCAAUAUUACGGUAU | -2.55 ± 0.24 | -2.39 ± 0.35
21 | CCAGAGCAAUAUUACGGGAC |  | -2.84 ± 1
22 | CGUGAGCAAUAUUACGUCGU | -4.38 ± 0.52 | 
23 | GGUGAGCAAUAUUACGCAGC | -2.97 ± 0.54 | 
24 | GGCCAGCAAUAUUACGGCCG | -3.47 ± 0.22 | -3 ± 0.23

Reprinted at random: 3 entries already listed, in no set order.
Row | Sequence | self-splicing fitness (ln) (30 °C) | self-splicing fitness (ln) (37 °C)
7 | CUUCAGCAAUAUUACGGUAG | -1.94 ± 0.12 | -0.92 ± 0.14
10 | GGCGAGCAAUAUUACGAGAG | -3.79 ± 0.39 | -2.54 ± 0.33
13 | CAUAAGCAAUAUUACGGGUG | -2.3 ± 0.08 | -1.17 ± 0.078

(listing goes on)

Row | Sequence | self-splicing fitness (ln) (30 °C) | self-splicing fitness (ln) (37 °C)
25 | UGCGAGCAAUAUUACGCUCA | -3.17 ± 1 | 
26 | CACUAGCAAUAUUACGGGCG | -0.464 ± 0.087 | -0.0972 ± 0.084
27 | GUUGAGCAAUAUUACGAAGC | -3.27 ± 0.79 | 
28 | UCUGAGCAAUAUUACGACUC |  | -2.5 ± 0.62
29 | GGCGAGCAAUAUUACGGUCC | -2.64 ± 0.52 | 
30 | AUUGAGCAAUAUUACGCCGU | -2.53 ± 0.77 | 
31 | CAUGAGCAAUAUUACGUACA | -3.1 ± 0.22 | -2.17 ± 0.3
32 | CCGGAGCAAUAUUACGUACA |  | -3.75 ± 0.59
33 | GCAGAGCAAUAUUACGCCUG | -4.23 ± 0.72 | 
34 | UGGUAGCAAUAUUACGGUGC |  | -2.9 ± 1.1
35 | AGUAAGCAAUAUUACGCCCG |  | -0.44 ± 1.4
36 | AUUAAGCAAUAUUACGAUUG | -2.98 ± 0.15 | -1.86 ± 0.2
37 | AAAGAGCAAUAUUACGGUAG | -3.9 ± 0.27 | -2.11 ± 0.18
38 | GUAGAGCAAUAUUACGGCUG | -1.04 ± 0.13 | -0.584 ± 0.14
39 | UAUGAGCAAUAUUACGCACU | -3.07 ± 0.61 | -0.818 ± 0.54
40 | GCUGAGCAAUAUUACGCCAU | -4.04 ± 1.1 | -1.13 ± 0.93
41 | GGAGAGCAAUAUUACGCCGG |  | -0.458 ± 1
42 | GGUGAGCAAUAUUACGCGUC |  | -2.3 ± 1.1
43 | UCUGAGCAAUAUUACGCUUC |  | -3.2 ± 0.73
44 | GCGAAGCAAUAUUACGCCCC |  | -0.881 ± 0.61
45 | CGUGAGCAAUAUUACGCGGG |  | -2.62 ± 0.62
46 | GAGUAGCAAUAUUACGUUCC |  | -1.24 ± 0.55
47 | CACGAGCAAUAUUACGAAAA | -2.14 ± 0.17 | -2.66 ± 0.25
